For part of these data: At least one peptide structure holds a part that was inferred or is arguable (an end, a ring closure or a residue). Some entries share one result that the patent states for a list of compounds. Bridge positions count the residues as written; N and C are the ends. Peptide text beside a SMILES is read from it.
Experiments:
[1] = target: T1, LFA-1 binding to ICAM-1 (JY cells) (Homo sapiens, UniProt P05362); experiment: LFA-1:ICAM-1 dependent JY cell aggregation assay (2 hours); format: cell-based
T1 construct: endogenous in cells; host or cells: JY cells
Method: Cysteine-constrained peptides, synthesized by Biopeptide (San Diego, Calif., USA), were isolated using high-performance liquid chromatography, and their correct mass was confirmed by mass spectrometry. The peptides were dissolved in 5% dimethylsulfoxide in phosphate-buffered saline (PBS) at concentrations of 10 mm and stored at −80° C. until use. […]
JY cells were maintained in RPMI-1640 medium supplemented with 10% fetal bovine serum at 37° C. in an atmosphere containing 5% CO2 in air. The aggregation of JY cells, which is dependent on LFA-1 binding to ICAM-1, was determined as previously reported (Shannon, J. P., Silva, M. V., Brown, D. C. & Larson, R. S. (2001) Novel cyclic peptide inhibits intercellular adhesion molecule-1-mediated cell aggregation. J. Pept. Res. 58, 140-150; Larson, R. S., Brown, D. C. & Sklar, L. A.(1997) Retinoic acid induces aggregation of the acute promyelocytic leukemia cell lineNB-4 by utilization of LFA-1 and ICAM-2.Blood 90, 2747-2756; Rothlein, R. & Springer, T. A. (1986) The requirement for lymphocyte function associated antigen 1 in homotypic leukocyte adhesion stimulated by phorbol ester. […] Within each well, the number of aggregates and the total number of free (single) cells were counted by inverted phase microscopy. Percent aggregation, P, was then determined as follows: P=100(1−Ff/Fi), where Ff (Fi) is the final (initial) number of free cells. […]

Protein sequences, listed by entry. Tags and fused reporters are not part of them. Residues count along the entry.
UniProt P05362, 28-532: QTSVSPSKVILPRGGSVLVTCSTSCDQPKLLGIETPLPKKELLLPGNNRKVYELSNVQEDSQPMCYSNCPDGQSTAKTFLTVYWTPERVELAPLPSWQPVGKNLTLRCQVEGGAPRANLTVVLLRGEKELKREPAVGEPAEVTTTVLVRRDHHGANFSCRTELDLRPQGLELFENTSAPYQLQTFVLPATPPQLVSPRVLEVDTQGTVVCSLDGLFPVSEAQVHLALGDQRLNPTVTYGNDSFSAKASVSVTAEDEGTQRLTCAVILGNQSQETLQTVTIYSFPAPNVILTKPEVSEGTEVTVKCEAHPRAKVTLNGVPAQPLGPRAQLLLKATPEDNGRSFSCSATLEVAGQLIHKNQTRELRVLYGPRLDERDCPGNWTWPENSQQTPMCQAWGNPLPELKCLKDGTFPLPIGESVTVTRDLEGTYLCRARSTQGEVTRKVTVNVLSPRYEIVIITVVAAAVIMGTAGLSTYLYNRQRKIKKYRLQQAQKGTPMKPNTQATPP

[2] = target: ICAM-1/LFA-1 dependent cell aggregation (Homo sapiens, UniProt P05362); conditions: difference from IP01, statistically insignificant in that assay; cited from earlier work

Row | SMILES | bioactivity after alanine substitution (in words) [1] | bioactivity relative to the lead inhibitor [2] [%]
1 | CC[C@H](C)[C@@H]1NC(=O)[C@H](CO)NC(=O)[C@H](CCCNC(=N)N)NC(=O)[C@H](C)NC(=O)[C@H](CCCNC(=N)N)NC(=O)[C@H](CC(C)C)NC(=O)[C@H](CC(C)C)NC(=O)[C@@H](N)CSSC[C@@H](C(=O)O)NC1=O [IP01-A5, CLLRARSIC] (H-CLLRARSIC-OH; disulfide 1-9; N-terminus and C-terminus assumed) | abolished bioactivity | 
2 | CC[C@H](C)[C@@H]1NC(=O)[C@H](C)NC(=O)[C@H](CCCNC(=N)N)NC(=O)[C@H](CCSC)NC(=O)[C@H](CCCNC(=N)N)NC(=O)[C@H](CC(C)C)NC(=O)[C@H](CC(C)C)NC(=O)[C@@H](N)CSSC[C@@H](C(=O)O)NC1=O [IP01-A7, CLLRMRAIC] (H-CLLRMRAIC-OH; disulfide 1-9; N-terminus and C-terminus assumed) |  | ≤ 10
3 | CSCC[C@@H]1NC(=O)[C@H](CCCNC(=N)N)NC(=O)[C@H](CC(C)C)NC(=O)[C@H](CC(C)C)NC(=O)[C@@H](N)CSSC[C@@H](C(=O)O)NC(=O)[C@H](C)NC(=O)[C@H](CO)NC(=O)[C@H](CCCNC(=N)N)NC1=O [IP01-A8, CLLRMRSAC] (H-CLLRMRSAC-OH; disulfide 1-9; N-terminus and C-terminus assumed) |  | ≤ 10

— patent US20050048579A1, “Tertiary structures of ICAM-1/LFA-1 modulators” (priority 2003, published 2005)
